Measurements published in the supplement of paper PMC10849652.
The other results are listed elsewhere or left out.

By UniProt entry, the sequences of proteins in these tests, tags left out. Where a name states a change or a piece, a line headed by the entry shows the natural chain unless it says otherwise.
UniProt P16930: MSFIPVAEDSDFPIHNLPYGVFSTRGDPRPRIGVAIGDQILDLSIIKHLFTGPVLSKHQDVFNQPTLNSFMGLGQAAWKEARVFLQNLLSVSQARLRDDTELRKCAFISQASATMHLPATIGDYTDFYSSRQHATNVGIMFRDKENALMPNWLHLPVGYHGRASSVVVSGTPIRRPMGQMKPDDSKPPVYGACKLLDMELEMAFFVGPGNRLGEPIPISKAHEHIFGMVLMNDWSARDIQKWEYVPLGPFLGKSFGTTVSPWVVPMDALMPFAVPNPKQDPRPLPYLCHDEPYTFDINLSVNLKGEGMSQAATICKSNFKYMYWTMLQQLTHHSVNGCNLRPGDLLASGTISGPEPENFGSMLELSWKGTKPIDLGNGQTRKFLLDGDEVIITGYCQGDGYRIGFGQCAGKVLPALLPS
UniProt Q96DZ1: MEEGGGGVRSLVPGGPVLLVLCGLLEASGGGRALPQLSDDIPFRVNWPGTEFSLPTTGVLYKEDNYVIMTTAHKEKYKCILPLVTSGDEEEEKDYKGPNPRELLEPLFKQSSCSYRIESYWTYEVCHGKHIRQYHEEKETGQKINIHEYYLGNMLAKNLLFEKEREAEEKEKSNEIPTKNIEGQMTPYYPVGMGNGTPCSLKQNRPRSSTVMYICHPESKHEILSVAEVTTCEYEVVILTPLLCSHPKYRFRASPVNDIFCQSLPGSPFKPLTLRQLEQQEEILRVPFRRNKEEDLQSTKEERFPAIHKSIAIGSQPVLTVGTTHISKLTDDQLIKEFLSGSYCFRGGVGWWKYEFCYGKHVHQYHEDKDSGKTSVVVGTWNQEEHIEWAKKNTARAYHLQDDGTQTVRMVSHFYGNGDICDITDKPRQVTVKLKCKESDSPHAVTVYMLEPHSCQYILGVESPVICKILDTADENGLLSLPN
UniProt Q96RT1: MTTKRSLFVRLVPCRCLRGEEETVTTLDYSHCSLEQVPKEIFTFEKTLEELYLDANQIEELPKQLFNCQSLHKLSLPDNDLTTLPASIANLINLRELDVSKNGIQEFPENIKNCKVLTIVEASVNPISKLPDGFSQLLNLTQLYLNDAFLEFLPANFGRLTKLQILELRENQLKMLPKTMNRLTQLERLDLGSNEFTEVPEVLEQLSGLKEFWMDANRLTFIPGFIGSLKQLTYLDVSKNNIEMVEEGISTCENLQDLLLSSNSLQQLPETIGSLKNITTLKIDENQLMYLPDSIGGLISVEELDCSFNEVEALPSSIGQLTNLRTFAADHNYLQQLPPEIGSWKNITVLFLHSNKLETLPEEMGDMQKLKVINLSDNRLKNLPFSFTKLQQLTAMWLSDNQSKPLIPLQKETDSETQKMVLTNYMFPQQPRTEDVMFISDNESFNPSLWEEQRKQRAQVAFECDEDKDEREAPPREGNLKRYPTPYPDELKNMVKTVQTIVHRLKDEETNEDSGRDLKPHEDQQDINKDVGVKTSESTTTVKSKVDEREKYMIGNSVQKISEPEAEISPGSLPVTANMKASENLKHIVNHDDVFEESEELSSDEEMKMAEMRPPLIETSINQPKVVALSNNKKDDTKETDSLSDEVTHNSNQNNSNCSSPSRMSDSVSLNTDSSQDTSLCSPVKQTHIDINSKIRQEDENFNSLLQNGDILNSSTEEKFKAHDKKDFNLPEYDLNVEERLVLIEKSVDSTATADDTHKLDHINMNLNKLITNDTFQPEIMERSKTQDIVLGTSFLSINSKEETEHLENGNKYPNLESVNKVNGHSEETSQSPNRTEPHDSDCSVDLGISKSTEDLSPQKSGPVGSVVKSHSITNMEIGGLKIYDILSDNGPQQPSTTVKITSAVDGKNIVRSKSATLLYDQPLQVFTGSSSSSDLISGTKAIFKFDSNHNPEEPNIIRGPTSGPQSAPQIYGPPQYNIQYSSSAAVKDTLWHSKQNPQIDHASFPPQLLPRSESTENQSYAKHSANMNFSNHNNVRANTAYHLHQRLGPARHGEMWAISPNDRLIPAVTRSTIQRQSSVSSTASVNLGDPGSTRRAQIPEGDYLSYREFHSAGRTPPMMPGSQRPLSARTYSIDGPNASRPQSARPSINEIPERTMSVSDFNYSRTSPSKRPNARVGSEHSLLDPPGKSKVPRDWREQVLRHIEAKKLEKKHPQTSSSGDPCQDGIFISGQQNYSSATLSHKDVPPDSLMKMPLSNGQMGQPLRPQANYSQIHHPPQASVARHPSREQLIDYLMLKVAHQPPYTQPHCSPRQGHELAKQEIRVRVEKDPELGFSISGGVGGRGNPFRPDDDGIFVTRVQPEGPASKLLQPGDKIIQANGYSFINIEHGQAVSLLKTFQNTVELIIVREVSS
UniProt Q9NV70: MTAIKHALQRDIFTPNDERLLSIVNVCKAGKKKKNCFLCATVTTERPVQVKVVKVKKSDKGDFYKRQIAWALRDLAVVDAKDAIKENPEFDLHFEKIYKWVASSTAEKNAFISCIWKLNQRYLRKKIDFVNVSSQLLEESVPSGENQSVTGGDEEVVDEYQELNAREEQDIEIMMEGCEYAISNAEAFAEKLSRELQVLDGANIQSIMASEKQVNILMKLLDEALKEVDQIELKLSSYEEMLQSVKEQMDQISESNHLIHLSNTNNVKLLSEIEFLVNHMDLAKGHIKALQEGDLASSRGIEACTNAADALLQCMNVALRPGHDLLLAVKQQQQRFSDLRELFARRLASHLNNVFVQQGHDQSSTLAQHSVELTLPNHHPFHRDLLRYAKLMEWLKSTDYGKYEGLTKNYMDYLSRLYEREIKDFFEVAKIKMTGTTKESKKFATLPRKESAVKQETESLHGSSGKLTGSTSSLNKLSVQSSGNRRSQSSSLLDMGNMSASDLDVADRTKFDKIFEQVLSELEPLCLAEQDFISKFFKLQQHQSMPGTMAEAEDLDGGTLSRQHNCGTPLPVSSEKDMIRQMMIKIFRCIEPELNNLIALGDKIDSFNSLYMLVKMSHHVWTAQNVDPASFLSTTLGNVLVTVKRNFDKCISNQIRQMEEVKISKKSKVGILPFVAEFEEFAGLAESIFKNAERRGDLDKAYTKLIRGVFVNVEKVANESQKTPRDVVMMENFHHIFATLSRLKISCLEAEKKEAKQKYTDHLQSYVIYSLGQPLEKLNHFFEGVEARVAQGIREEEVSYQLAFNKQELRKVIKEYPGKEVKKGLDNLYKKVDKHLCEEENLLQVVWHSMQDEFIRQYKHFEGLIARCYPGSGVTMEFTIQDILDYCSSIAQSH
UniProt Q9GZU8: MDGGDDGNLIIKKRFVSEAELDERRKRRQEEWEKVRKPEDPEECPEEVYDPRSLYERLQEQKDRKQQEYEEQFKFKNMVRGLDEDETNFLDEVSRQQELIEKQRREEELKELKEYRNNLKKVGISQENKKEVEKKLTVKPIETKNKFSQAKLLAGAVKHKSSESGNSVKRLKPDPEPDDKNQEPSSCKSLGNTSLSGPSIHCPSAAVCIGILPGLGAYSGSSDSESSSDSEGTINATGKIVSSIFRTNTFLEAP
UniProt O60645: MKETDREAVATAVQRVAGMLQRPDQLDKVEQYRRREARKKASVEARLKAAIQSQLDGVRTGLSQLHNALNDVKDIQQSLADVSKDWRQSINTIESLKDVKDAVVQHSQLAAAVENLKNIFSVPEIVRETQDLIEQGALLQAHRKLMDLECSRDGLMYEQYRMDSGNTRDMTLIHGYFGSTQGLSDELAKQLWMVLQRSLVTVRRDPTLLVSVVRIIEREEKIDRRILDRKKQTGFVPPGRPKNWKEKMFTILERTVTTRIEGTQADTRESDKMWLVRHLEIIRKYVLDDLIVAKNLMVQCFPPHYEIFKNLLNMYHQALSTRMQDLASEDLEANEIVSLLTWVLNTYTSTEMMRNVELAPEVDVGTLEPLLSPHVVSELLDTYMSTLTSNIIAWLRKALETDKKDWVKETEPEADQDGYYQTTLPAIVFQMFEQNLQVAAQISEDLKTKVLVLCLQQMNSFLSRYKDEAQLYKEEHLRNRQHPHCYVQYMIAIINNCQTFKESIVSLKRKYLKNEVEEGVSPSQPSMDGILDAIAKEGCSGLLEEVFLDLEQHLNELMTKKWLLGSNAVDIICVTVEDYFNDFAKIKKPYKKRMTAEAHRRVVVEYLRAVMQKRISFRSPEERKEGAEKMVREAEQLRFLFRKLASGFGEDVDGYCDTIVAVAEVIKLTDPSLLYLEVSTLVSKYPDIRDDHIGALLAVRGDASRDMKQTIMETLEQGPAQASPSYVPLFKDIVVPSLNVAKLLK
UniProt Q15024, whole entry, looked up: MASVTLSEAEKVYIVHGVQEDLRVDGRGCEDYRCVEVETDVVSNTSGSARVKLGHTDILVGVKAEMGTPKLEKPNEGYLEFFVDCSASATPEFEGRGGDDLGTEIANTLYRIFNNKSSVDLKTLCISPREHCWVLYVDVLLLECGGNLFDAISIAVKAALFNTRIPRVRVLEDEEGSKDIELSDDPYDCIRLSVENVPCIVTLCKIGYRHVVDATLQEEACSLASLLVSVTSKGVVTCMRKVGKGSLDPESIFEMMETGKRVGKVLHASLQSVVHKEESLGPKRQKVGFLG
UniProt Q16134: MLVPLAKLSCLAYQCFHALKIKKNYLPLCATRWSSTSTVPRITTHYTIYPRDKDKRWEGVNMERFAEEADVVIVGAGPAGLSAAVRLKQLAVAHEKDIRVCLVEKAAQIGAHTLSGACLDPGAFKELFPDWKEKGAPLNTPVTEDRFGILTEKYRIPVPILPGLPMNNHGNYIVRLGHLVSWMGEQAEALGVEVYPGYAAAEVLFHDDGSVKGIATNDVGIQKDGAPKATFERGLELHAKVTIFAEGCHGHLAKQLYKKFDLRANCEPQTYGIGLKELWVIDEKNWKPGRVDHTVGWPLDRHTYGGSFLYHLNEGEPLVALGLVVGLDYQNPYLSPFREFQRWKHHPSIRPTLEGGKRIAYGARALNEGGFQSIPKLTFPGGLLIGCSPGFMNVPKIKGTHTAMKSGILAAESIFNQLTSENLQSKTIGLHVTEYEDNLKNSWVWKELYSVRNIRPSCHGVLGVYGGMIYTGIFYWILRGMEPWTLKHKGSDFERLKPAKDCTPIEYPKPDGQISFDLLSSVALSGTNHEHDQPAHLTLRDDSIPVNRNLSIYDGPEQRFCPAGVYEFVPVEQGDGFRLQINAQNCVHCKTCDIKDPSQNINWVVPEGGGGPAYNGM
UniProt Q9Y6I3: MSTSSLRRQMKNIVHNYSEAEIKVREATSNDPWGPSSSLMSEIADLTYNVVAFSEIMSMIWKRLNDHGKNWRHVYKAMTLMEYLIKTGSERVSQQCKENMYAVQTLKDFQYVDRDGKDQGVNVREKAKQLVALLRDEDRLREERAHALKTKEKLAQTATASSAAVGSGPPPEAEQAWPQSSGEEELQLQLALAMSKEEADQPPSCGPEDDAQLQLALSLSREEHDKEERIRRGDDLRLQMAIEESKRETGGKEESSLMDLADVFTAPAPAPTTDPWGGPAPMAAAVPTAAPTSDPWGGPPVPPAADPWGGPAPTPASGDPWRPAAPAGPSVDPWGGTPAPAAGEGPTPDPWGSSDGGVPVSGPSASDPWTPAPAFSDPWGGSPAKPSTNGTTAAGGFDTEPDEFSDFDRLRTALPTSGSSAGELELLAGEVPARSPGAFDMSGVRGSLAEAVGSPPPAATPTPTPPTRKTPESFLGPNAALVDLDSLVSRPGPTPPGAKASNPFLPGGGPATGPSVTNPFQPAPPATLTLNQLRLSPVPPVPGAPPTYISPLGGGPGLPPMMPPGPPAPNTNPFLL
UniProt P34913, whole entry, looked up: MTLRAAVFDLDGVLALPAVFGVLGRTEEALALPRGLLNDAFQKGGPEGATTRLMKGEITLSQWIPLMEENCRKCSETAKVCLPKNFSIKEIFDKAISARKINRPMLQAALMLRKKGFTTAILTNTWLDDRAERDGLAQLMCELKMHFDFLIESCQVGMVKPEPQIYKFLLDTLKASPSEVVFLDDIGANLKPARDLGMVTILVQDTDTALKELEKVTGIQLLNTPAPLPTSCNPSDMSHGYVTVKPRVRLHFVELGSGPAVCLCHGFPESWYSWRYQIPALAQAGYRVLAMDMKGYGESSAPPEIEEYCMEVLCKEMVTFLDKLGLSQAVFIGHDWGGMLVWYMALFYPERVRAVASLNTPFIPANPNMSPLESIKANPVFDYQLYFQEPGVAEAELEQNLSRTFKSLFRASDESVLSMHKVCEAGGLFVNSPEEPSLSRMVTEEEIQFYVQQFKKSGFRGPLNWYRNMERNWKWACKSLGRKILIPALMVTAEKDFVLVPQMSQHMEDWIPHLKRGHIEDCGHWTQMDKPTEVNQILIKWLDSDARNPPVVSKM
UniProt Q96E09: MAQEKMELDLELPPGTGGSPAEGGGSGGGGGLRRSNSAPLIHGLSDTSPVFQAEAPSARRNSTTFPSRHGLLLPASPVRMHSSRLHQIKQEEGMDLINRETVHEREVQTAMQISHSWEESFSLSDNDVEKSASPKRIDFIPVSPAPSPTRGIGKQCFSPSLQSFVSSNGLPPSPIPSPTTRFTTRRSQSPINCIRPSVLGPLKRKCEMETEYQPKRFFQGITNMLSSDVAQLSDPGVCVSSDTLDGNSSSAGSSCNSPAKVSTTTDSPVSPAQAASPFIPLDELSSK

Key:
Test in all cases: log2 fold change, soluble protein after heating vs DMSO (PISA); higher = thermal stabilisation; K562 cells, 10 uM, 30 min; active = over 0.2 and 3.5 SD of the protein, either way, in both replicates (recomputed)
[1] = compound: COC1=CC=C(C=C1)CN2C=CC3=C2C=C(C=C3)C(=O)NO
Summary of the method: (§1)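 For each measurement, 10 μM compound was applied for 30 min to K562 cells at 2×10^6 cells/mL. Aliquots were heated for 3 min across 48°C-58°C, pooled, and extracted in PBS with 0.5% NP-40 at 4°C; the supernatant after 21,000xg for 90 min was soluble protein. This was quantified by TMTpro 16plex LC-MS/MS with channel sums equalised, and thermal stability was reported relative to control samples from duplicates, on a log2 fold-change scale.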

[2] = compound: CON(C)C(=O)N1N=C(c2cc(F)ccc2F)S[C@@]1(CCCN)c1ccccc1 [filanesib]
Summary of the method: as §1

[3] = compound: CO[C@H]1C[C@@H]2CC[C@@H](C)[C@@](O)(O2)C(=O)C(=O)N2CCCC[C@H]2C(=O)O[C@H]([C@H](C)C[C@@H]2CC[C@H](n3cnnn3)[C@H](OC)C2)CC(=O)[C@H](C)/C=C(\C)[C@@H](O)[C@@H](OC)C(=O)[C@H](C)C[C@H](C)/C=C/C=C/C=C/1C [zotarolimus]
Summary of the method: as §1

[4] = compound: COc1cc(C(=O)O)ccc1NC(=O)[C@@H]1N[C@@H](CC(C)(C)C)[C@](C#N)(c2ccc(Cl)cc2F)[C@H]1c1cccc(Cl)c1F [idasanutlin]
Summary of the method: as §1

[5] = compound: COc1cc(Nc2ncc3c(n2)-c2ccc(Cl)cc2C(c2c(F)cccc2OC)=NC3)ccc1C(=O)O [alisertib]
Summary of the method: as §1

[6] = compound: COc1cc2nc(-c3cc(F)ccc3O)nc(N[C@@H]3CNC[C@H]3C(C)(C)O)c2cc1OC
Summary of the method: as §1

[7] = compound: COc1cc2ncnc(Nc3ccc(F)c(Cl)c3)c2cc1OCCCN1CCOCC1 [gefitinib]
Summary of the method: as §1

[8] = compound: COc1cccc2cc(-c3nc([C@H]4CC[C@H](C(=O)O)CC4)n4ncnc(N)c34)[nH]c12
Summary of the method: as §1

[9] = compound: CS(=O)(=O)CCNCc1ccc(-c2ccc3ncnc(Nc4ccc(OCc5cccc(F)c5)c(Cl)c4)c3c2)o1 [lapatinib]
Summary of the method: as §1

[10] = compound: CS(=O)(=O)N1CCN(Cc2cc3nc(-c4cccc5[nH]ncc45)nc(N4CCOCC4)c3s2)CC1 [pictilisib]
Summary of the method: as §1

Target | log2 fold change [1] | log2 fold change [2] | log2 fold change [3] | log2 fold change [4] | log2 fold change [5] | log2 fold change [6] | log2 fold change [7] | log2 fold change [8] | log2 fold change [9] | log2 fold change [10]
ERC1 (UniProt Q8IUD2) | inactive: -0.044 | inactive: 0.03 | inactive: 0.017 | inactive: 0.038 | inactive: -0.107 | inactive: -0.06 | inactive: 0.039 | inactive: -0.014 | inactive: -0.013 | inactive: 0.147
ERGIC3 isoform 3 (UniProt Q9Y282) | inactive: -0.004 | inactive: -0.075 | inactive: -0.03 | inactive: 0.003 | inactive: -0.033 | inactive: -0.044 | inactive: 0.047 | inactive: 0.005 | inactive: 0.074 | inactive: -0.036
ETNK1 (UniProt Q9HBU6) | inactive: -0.083 | inactive: -0.172 | inactive: 0.016 | inactive: -0.105 | inactive: -0.045 | inactive: 0.013 | inactive: -0.02 | inactive: 0.01 | inactive: 0.078 | inactive: -0.044
EXOSC2 (UniProt Q13868) | inactive: -0.018 | inactive: -0.008 | inactive: -0.022 | inactive: -0.035 | inactive: -0.087 | inactive: 0.012 | inactive: 0 | inactive: 0.048 | inactive: 0.011 | inactive: 0.033
ERCC4 (UniProt Q92889) | inactive: -0.338 | inactive: -0.133 | inactive: -0.113 | inactive: -0.045 | inactive: 0.252 | inactive: 0.157 | inactive: -0.023 | inactive: 0.239 | inactive: 0.044 | inactive: 0.465
ERP44 (UniProt Q9BS26) | inactive: -0.032 | inactive: -0.004 | inactive: 0.037 | inactive: 0.025 | inactive: -0.057 | inactive: -0.01 | inactive: 0.02 | inactive: 0.01 | inactive: -0.008 | inactive: 0.011
ESYT2 isoform 2 (UniProt A0FGR8) | inactive: -0.015 | inactive: -0.022 | inactive: 0.012 | inactive: 0.006 | inactive: 0.034 | inactive: 0.006 | inactive: 0.059 | inactive: 0.016 | inactive: 0.018 | inactive: 0.092
FAH isoform 2 (UniProt P16930) | inactive: -0.054 | inactive: -0.065 | inactive: -0.031 | inactive: -0.288 | inactive: -0.077 | inactive: 0.077 | inactive: -0.088 | inactive: 0.034 | inactive: -0.006 | inactive: 0.082
ERCC5 (UniProt P28715) | inactive: 0.063 | inactive: 0.072 | inactive: 0.037 | inactive: -0.034 | inactive: 0.084 | inactive: -0.043 | inactive: -0.057 | inactive: -0.149 | inactive: 0.037 | inactive: 0.062
ETFRF1 (UniProt Q6IPR1) | inactive: -0.008 | inactive: 0.027 | inactive: -0.229 | inactive: -0.262 | inactive: -0.164 | inactive: -0.014 | inactive: 0.063 | inactive: 0.093 | inactive: 0.011 | inactive: 0.035
ERLIN1 (UniProt O75477) | inactive: -0.013 | inactive: 0.031 | inactive: 0.037 | inactive: 0.128 | inactive: -0.092 | inactive: -0.075 | inactive: -0.051 | inactive: -0.14 | inactive: 0.006 | inactive: -0.107
ERLEC1 (UniProt Q96DZ1) | inactive: -0.059 | inactive: -0.002 | inactive: -0.009 | inactive: 0.01 | inactive: -0.01 | inactive: 0.025 | inactive: 0.015 | inactive: 0.012 | inactive: 0 | inactive: 0
ERBIN isoform 8 (UniProt Q96RT1) | inactive: 0.045 | inactive: -0.02 | inactive: -0.001 | inactive: -0.034 | inactive: -0.057 | inactive: 0.157 | inactive: 0.038 | inactive: 0.056 | inactive: -0.033 | inactive: -0.061
EXOC1 (UniProt Q9NV70) | inactive: -0.056 | inactive: 0.01 | inactive: 0.038 | inactive: -0.084 | inactive: 0.015 | inactive: 0.131 | inactive: -0.045 | inactive: -0.129 | inactive: -0.011 | inactive: -0.021
ERAP1 isoform 2 (UniProt Q9NZ08) | inactive: -0.091 | inactive: 0.056 | inactive: 0.029 | inactive: 0.039 | inactive: -0.109 | inactive: -0.015 | inactive: -0.017 | inactive: -0.087 | inactive: 0.072 | inactive: -0.019
EXOC7 (UniProt Q9UPT5) | inactive: 0.023 | inactive: 0.032 | inactive: 0.01 | inactive: -0.076 | inactive: -0.024 | inactive: 0.149 | inactive: -0.054 | inactive: -0.053 | inactive: -0.031 | inactive: -0.057
FAM117A (UniProt Q9C073) | inactive: 0.105 | inactive: -0.025 | inactive: 0.008 | inactive: 0.076 | inactive: 0 | inactive: -0.059 | inactive: -0.004 | inactive: 0.024 | inactive: -0.026 | inactive: -0.019
FAM192A (UniProt Q9GZU8) | inactive: -0.051 | inactive: -0.013 | inactive: -0.038 | inactive: -0.009 | inactive: -0.029 | inactive: 0.005 | inactive: 0.022 | inactive: 0.06 | inactive: 0.032 | inactive: 0.078
EXOC3 (UniProt O60645) | inactive: 0.209 | inactive: -0.026 | inactive: 0.033 | inactive: -0.079 | inactive: -0.038 | inactive: 0.146 | inactive: 0.023 | inactive: -0.108 | inactive: -0.036 | inactive: -0.104
EXOSC7 (UniProt Q15024) | inactive: -0.037 | inactive: 0.002 | inactive: -0.022 | inactive: -0.023 | inactive: -0.05 | inactive: -0.008 | inactive: 0.017 | inactive: 0.033 | inactive: -0.046 | inactive: 0.014
ERLIN2 (UniProt O94905) | inactive: -0.006 | inactive: 0.039 | inactive: 0.034 | inactive: 0.09 | inactive: -0.085 | inactive: -0.143 | inactive: -0.058 | inactive: -0.076 | inactive: -0.019 | inactive: -0.09
ETFDH (UniProt Q16134) | inactive: 0.085 | inactive: -0.146 | inactive: 0.012 | inactive: -0.034 | inactive: 0.03 | inactive: -0.022 | inactive: 0.026 | inactive: 0.026 | inactive: -0.052 | inactive: 0.032
EPN1 (UniProt Q9Y6I3) | inactive: -0.051 | inactive: -0.073 | inactive: 0.02 | inactive: 0.091 | inactive: -0.059 | inactive: 0 | inactive: 0.018 | inactive: 0.007 | inactive: -0.001 | inactive: -0.031
F5 (UniProt P12259) | inactive: -0.032 | inactive: -0.05 | inactive: -0.051 | active: 0.613 | inactive: -0.074 | inactive: -0.089 | inactive: 0.026 | inactive: 0.059 | inactive: 0.034 | inactive: 0.074
ESD (UniProt P10768) | inactive: -0.029 | inactive: -0.031 | inactive: 0.011 | inactive: -0.008 | inactive: 0.035 | inactive: -0.005 | inactive: -0.017 | inactive: 0.068 | inactive: -0.034 | inactive: -0.043
ETNPPL (UniProt Q8TBG4) | inactive: -0.244 | inactive: 0.189 | inactive: -0.197 | inactive: 0.07 | inactive: -0.009 | inactive: 0.017 | inactive: -0.039 | inactive: 0.252 | inactive: -0.108 | inactive: -0.095
EPHX2 (UniProt P34913) | inactive: -0.019 | inactive: -0.096 | inactive: -0.017 | inactive: -0.089 | inactive: -0.053 | inactive: -0.009 | inactive: 0 | inactive: 0.055 | inactive: -0.041 | inactive: 0.062
EVC2 (UniProt Q86UK5) | inactive: -0.073 | inactive: -0.142 | inactive: -0.039 | inactive: 0.053 | inactive: -0.066 | inactive: -0.146 | inactive: 0.09 | inactive: 0.016 | inactive: -0.224 | inactive: -0.194
FAM122A (UniProt Q96E09) | inactive: -0.05 | inactive: -0.004 | inactive: -0.038 | inactive: 0.017 | inactive: -0.068 | inactive: -0.053 | inactive: 0.019 | inactive: 0.005 | inactive: 0.018 | inactive: 0.092

Record cards, from the list above. Values in the order: log2 fold change [1]	log2 fold change [2]	log2 fold change [3]	log2 fold change [4]	log2 fold change [5]	log2 fold change [6]	log2 fold change [7]	log2 fold change [8]	log2 fold change [9]	log2 fold change [10]
ETNPPL (UniProt Q8TBG4) in the list: inactive: -0.244	inactive: 0.189	inactive: -0.197	inactive: 0.07	inactive: -0.009	inactive: 0.017	inactive: -0.039	inactive: 0.252	inactive: -0.108	inactive: -0.095
FAM122A (UniProt Q96E09) in the list: inactive: -0.05	inactive: -0.004	inactive: -0.038	inactive: 0.017	inactive: -0.068	inactive: -0.053	inactive: 0.019	inactive: 0.005	inactive: 0.018	inactive: 0.092
